Taken from: PubChem BioAssay AID686938 (Drosophila RNAi Screening Center, 2013)
In all, the deposit lists about 23,000 reagents; this is an unselected part of those that have a named target and a result. In the full data, 75 (0.33%) got an active call. 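Raw plate signals without normalisation; calls rest on plate z-scores that were not deposited; ratio present for only 364 wells.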 A number with no mark means an inactive call. Not given: the dose of the treatment.

- Purpose: 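Looking for CRAC channel components and the factors controlling them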 (primary screen)
- System: Drosophila S2R+ cells
- Reagent: long dsRNA against Drosophila genes, about 0.25 µg dsRNA per well, roughly 10,000 cells
- Timing: 5 days of knock-down before the calcium assay
- Treatment: thapsigargin (SERCA pump blocker) to empty calcium stores; entry signal taken 4 min after adding it
- Read-out: 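Duplicate raw fluo-4 intensities per well from a plate reader, at rest and four minutes after thapsigargin emptied calcium stores; entry-to-rest ratio filled for only some wells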
- Direction: calcium entry signal: higher = stronger calcium signal after store depletion; resting calcium signal: higher = higher resting calcium signal
- Units: calcium entry signal in fluorescence units; resting calcium signal in fluorescence units
- Rule for the call: 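Hit if the duplicate-averaged plate z-score for entry over resting signal is under −3; wells with weak total dye signal (Fmax z < −2) or more than 5 off-targets removed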
- Meaning of the calls: active = strongly reduced calcium entry; inactive = no strong reduction

CG31380 (GeneID 318701) [SID104195480] scored calcium entry signal, replicate 1 = 4.18e7; calcium entry signal, replicate 2 = 6.55e7; resting calcium signal, replicate 1 = 1.88e7; resting calcium signal, replicate 2 = 2.66e7. Kaz (GeneID 326135) [SID104194429] showed calcium entry signal, replicate 1 = 3.22e7; calcium entry signal, replicate 2 = 3.78e7; resting calcium signal, replicate 1 = 1.51e7; resting calcium signal, replicate 2 = 1.84e7. Knock-down of CG13216 (GeneID 36181) [SID104186130] came out at: calcium entry signal, replicate 1 = 1.86e7; calcium entry signal, replicate 2 = 3.73e7; resting calcium signal, replicate 1 = 1.05e7; resting calcium signal, replicate 2 = 1.42e7. Rh3 (GeneID 42398) [SID104196614] showed calcium entry signal, replicate 1 = 4.39e7; calcium entry signal, replicate 2 = 3.75e7; resting calcium signal, replicate 1 = 2.10e7; resting calcium signal, replicate 2 = 1.68e7. With knock-down of Not10 (GeneID 41552) [SID104193921], the screen gave calcium entry signal, replicate 1 = 4.13e7; calcium entry signal, replicate 2 = 5.11e7; resting calcium signal, replicate 1 = 1.74e7; resting calcium signal, replicate 2 = 2.15e7. Knock-down of CG34251 (GeneID 5740860) [SID104189290] gave: calcium entry signal, replicate 1 = 3.36e7; calcium entry signal, replicate 2 = 3.81e7; resting calcium signal, replicate 1 = 1.56e7; resting calcium signal, replicate 2 = 1.83e7.

Silencing of CG34251 (GeneID 5740860) [SID104189292] gave: calcium entry signal, replicate 1 = 2.53e7; calcium entry signal, replicate 2 = 3.55e7; resting calcium signal, replicate 1 = 1.17e7; resting calcium signal, replicate 2 = 1.48e7. Depletion of Usp2 (GeneID 33132) [SID104200382] resulted in: calcium entry signal, replicate 1 = 3.35e7; calcium entry signal, replicate 2 = 3.66e7; resting calcium signal, replicate 1 = 1.60e7; resting calcium signal, replicate 2 = 1.63e7. Depletion of Usp2 (GeneID 33132) [SID104200424] gave: calcium entry signal, replicate 1 = 3.57e7; calcium entry signal, replicate 2 = 4.09e7; resting calcium signal, replicate 1 = 1.76e7; resting calcium signal, replicate 2 = 1.87e7. Against Usp2 (GeneID 33132) [SID104200425], the entry reads calcium entry signal, replicate 1 = 5.30e7; calcium entry signal, replicate 2 = 4.81e7; resting calcium signal, replicate 1 = 2.48e7; resting calcium signal, replicate 2 = 2.18e7. CG6845 (GeneID 38019) [SID104188368] gave calcium entry signal, replicate 1 = 4.95e7; calcium entry signal, replicate 2 = 4.51e7; resting calcium signal, replicate 1 = 2.28e7; resting calcium signal, replicate 2 = 1.96e7. CG12986 (GeneID 32759) [SID104199298] scored calcium entry signal, replicate 1 = 2.63e7; calcium entry signal, replicate 2 = 3.28e7; resting calcium signal, replicate 1 = 1.38e7; resting calcium signal, replicate 2 = 1.44e7.

After knock-down of wun (GeneID 35966) [SID104187511], the record shows calcium entry signal, replicate 1 = 3.25e7; calcium entry signal, replicate 2 = 2.64e7; resting calcium signal, replicate 1 = 1.52e7; resting calcium signal, replicate 2 = 1.28e7. Sec23 (GeneID 40694) [SID104192179] scored calcium entry signal, replicate 1 = 2.72e7; calcium entry signal, replicate 2 = 6.11e7; resting calcium signal, replicate 1 = 1.39e7; resting calcium signal, replicate 2 = 2.69e7. With knock-down of Nmd3 (GeneID 31195) [SID104198479] the results were calcium entry signal, replicate 1 = 2.73e7; calcium entry signal, replicate 2 = 4.67e7; resting calcium signal, replicate 1 = 1.40e7; resting calcium signal, replicate 2 = 1.98e7. Against Nmd3 (GeneID 31195) [SID104202193], the values are calcium entry signal, replicate 1 = 2.63e7; calcium entry signal, replicate 2 = 4.00e7; resting calcium signal, replicate 1 = 1.44e7; resting calcium signal, replicate 2 = 1.97e7. With knock-down of CG40583 (retired record) (GeneID 5740259) [SID104200730], the screen gave calcium entry signal, replicate 1 = 2.65e7; calcium entry signal, replicate 2 = 3.89e7; resting calcium signal, replicate 1 = 1.35e7; resting calcium signal, replicate 2 = 1.74e7. Silencing of CG11598 (GeneID 41554) [SID104194123] resulted in: calcium entry signal, replicate 1 = 3.27e7; calcium entry signal, replicate 2 = 3.52e7; resting calcium signal, replicate 1 = 1.47e7; resting calcium signal, replicate 2 = 1.67e7.

For CG32983 (GeneID 50434) [SID104201853] the deposit lists calcium entry signal, replicate 1 = 3.88e7; calcium entry signal, replicate 2 = 4.03e7; resting calcium signal, replicate 1 = 1.78e7; resting calcium signal, replicate 2 = 2.17e7. Knock-down of Mcm3 (GeneID 31449) [SID104198471] gave: calcium entry signal, replicate 1 = 2.18e7; calcium entry signal, replicate 2 = 2.61e7; resting calcium signal, replicate 1 = 1.11e7; resting calcium signal, replicate 2 = 1.30e7. Against CG3437 (GeneID 39096) [SID104190158] the deposit lists calcium entry signal, replicate 1 = 2.69e7; calcium entry signal, replicate 2 = 3.64e7; resting calcium signal, replicate 1 = 1.35e7; resting calcium signal, replicate 2 = 1.58e7.

Not a retest: 3 of the entries above.
Nmd3 (GeneID 31195) [SID104198479] — calcium entry signal, replicate 1: 2.73e7; calcium entry signal, replicate 2: 4.67e7; resting calcium signal, replicate 1: 1.40e7; resting calcium signal, replicate 2: 1.98e7
Nmd3 (GeneID 31195) [SID104202193] — calcium entry signal, replicate 1: 2.63e7; calcium entry signal, replicate 2: 4.00e7; resting calcium signal, replicate 1: 1.44e7; resting calcium signal, replicate 2: 1.97e7
CG40583 (retired record) (GeneID 5740259) [SID104200730] — calcium entry signal, replicate 1: 2.65e7; calcium entry signal, replicate 2: 3.89e7; resting calcium signal, replicate 1: 1.35e7; resting calcium signal, replicate 2: 1.74e7
